Source: publication PMC6320802
No constants are given. Whether binding was seen depends on the method and setting. In cells and extracts the contact can be indirect. Some results given as binding are weak or reduced against the parent protein; the word gives no strength.

The chains behind the UniProt entries cited, without tags or fusion partners.
UniProt Q3B7U9: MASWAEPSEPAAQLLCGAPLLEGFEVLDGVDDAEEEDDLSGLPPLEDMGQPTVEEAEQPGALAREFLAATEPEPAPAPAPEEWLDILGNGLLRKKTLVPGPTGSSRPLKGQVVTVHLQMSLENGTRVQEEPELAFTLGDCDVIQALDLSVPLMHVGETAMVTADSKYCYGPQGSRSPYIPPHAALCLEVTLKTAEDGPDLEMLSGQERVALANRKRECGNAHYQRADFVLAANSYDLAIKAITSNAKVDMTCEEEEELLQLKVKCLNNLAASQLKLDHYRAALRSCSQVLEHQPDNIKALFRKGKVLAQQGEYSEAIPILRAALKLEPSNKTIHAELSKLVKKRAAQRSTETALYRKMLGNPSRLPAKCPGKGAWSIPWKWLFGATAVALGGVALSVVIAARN
UniProt P35524: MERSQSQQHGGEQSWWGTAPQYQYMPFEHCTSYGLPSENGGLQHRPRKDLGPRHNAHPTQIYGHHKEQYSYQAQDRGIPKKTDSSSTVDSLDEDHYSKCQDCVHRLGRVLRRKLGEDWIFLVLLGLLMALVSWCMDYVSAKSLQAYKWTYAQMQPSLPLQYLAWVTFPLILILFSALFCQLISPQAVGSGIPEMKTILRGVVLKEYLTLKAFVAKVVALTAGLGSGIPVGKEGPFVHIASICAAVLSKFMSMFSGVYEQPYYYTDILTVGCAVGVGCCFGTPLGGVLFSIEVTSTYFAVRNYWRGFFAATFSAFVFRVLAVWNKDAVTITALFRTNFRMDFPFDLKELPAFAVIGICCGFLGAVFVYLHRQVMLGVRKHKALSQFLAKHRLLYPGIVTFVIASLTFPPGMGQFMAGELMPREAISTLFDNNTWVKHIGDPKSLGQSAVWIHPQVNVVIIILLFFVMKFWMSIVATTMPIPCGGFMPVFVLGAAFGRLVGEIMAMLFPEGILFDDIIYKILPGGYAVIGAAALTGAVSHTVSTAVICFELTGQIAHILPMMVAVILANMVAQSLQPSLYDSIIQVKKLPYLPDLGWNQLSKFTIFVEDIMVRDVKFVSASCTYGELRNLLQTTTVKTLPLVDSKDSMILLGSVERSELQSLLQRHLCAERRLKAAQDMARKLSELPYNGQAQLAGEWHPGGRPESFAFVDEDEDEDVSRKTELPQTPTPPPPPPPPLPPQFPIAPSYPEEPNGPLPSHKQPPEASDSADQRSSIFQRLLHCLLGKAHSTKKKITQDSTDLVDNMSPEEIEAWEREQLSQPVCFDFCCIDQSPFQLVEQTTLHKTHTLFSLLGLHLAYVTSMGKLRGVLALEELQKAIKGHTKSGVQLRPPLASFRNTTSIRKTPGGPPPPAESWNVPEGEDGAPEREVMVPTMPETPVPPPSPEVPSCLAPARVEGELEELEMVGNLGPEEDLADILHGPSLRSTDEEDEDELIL

Experiments:
[1] = molecular target: FK506-binding protein 8 (FKBP8), endogenous, rat skeletal muscle (rat (endogenous in skeletal muscle)) (UniProt Q3B7U9); experiment: co-IP; rat skeletal muscle lysates; immunoprecipitation with anti-CLC-1 (Fig. 5D) or anti-FKBP8 (Fig. 5E) antibody, then immunoblotting; rabbit IgG as specificity control; input about 10% of total protein
[2] = molecular target: CLC-1 chloride channel, endogenous, rat skeletal muscle (rat (endogenous in skeletal muscle)) (UniProt P35524); experiment: as above

| binding [1] | binding [2] | Substance |
| --- | --- | --- |
| binds | – | CLC-1 chloride channel, endogenous, rat skeletal muscle (from UniProt P35524 1-994) |
| – | binds | FK506-binding protein 8 (FKBP8), endogenous, rat skeletal muscle (from UniProt Q3B7U9 1-403) |
